# Data from the supplement of paper PMC10849652.
# The chains behind the UniProt entries cited, without tags or fusion partners. Where a name states a change or a piece, a line headed by the entry shows the natural chain unless it says otherwise.
# UniProt P45983: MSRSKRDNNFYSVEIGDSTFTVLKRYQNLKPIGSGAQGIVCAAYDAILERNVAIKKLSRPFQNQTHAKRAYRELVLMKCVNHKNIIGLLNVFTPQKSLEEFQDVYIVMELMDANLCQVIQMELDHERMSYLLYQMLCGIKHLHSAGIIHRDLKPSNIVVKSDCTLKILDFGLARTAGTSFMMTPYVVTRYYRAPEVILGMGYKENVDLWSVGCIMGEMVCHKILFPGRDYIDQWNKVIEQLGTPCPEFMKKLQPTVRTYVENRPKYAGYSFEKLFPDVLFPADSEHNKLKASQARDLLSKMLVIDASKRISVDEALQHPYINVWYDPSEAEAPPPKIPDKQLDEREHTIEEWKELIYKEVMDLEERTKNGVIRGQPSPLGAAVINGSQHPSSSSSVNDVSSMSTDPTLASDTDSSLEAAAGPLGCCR
# UniProt Q16659, whole entry, looked up: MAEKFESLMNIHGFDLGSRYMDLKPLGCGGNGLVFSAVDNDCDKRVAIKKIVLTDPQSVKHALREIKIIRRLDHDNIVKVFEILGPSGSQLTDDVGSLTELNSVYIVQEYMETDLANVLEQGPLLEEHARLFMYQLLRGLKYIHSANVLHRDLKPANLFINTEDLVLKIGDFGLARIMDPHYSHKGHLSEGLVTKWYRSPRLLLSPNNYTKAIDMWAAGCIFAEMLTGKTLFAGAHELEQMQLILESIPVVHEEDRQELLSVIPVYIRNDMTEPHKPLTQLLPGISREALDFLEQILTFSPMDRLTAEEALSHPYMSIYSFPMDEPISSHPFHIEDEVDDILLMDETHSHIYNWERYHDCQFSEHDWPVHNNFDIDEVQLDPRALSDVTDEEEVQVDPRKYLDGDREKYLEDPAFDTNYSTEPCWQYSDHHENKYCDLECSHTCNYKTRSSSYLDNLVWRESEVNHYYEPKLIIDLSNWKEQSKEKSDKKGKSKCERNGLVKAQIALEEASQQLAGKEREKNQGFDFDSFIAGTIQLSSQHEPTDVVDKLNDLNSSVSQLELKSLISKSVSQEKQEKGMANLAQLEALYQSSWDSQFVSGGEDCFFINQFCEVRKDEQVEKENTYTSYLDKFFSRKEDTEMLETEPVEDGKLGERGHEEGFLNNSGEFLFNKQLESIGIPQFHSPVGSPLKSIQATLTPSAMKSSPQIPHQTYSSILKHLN
# UniProt Q86X29: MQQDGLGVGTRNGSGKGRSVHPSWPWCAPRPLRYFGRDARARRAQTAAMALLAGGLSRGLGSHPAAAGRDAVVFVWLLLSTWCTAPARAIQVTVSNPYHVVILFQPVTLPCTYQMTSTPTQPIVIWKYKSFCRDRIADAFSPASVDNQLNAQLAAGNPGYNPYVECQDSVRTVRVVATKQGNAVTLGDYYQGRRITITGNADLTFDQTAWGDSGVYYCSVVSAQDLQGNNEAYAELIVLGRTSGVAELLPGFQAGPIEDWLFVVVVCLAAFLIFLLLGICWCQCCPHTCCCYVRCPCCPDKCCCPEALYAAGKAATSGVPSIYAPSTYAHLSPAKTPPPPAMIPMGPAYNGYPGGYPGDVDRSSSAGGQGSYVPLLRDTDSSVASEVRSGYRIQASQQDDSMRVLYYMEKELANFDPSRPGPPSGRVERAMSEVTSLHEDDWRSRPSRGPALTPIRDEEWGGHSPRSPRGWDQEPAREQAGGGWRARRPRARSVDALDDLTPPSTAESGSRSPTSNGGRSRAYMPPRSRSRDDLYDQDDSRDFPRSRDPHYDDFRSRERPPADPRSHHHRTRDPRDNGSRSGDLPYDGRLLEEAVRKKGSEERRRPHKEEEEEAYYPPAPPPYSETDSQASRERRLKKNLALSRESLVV
# UniProt Q9Y2U5: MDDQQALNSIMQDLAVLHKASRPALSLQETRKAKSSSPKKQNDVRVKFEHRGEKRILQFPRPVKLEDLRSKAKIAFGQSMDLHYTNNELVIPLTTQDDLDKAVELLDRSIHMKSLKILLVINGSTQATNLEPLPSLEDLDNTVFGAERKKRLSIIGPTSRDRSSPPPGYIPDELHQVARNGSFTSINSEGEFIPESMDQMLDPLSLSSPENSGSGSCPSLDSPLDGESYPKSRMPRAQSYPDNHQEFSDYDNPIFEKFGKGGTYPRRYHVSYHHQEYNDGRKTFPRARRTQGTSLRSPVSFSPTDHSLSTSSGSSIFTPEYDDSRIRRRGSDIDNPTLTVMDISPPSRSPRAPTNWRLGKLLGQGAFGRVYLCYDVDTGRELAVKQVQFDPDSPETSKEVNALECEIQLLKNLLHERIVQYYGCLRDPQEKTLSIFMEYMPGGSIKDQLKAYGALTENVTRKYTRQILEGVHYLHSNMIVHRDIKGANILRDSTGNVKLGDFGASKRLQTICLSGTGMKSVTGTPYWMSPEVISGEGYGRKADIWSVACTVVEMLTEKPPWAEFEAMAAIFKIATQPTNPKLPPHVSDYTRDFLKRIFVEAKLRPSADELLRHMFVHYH
# UniProt P27816: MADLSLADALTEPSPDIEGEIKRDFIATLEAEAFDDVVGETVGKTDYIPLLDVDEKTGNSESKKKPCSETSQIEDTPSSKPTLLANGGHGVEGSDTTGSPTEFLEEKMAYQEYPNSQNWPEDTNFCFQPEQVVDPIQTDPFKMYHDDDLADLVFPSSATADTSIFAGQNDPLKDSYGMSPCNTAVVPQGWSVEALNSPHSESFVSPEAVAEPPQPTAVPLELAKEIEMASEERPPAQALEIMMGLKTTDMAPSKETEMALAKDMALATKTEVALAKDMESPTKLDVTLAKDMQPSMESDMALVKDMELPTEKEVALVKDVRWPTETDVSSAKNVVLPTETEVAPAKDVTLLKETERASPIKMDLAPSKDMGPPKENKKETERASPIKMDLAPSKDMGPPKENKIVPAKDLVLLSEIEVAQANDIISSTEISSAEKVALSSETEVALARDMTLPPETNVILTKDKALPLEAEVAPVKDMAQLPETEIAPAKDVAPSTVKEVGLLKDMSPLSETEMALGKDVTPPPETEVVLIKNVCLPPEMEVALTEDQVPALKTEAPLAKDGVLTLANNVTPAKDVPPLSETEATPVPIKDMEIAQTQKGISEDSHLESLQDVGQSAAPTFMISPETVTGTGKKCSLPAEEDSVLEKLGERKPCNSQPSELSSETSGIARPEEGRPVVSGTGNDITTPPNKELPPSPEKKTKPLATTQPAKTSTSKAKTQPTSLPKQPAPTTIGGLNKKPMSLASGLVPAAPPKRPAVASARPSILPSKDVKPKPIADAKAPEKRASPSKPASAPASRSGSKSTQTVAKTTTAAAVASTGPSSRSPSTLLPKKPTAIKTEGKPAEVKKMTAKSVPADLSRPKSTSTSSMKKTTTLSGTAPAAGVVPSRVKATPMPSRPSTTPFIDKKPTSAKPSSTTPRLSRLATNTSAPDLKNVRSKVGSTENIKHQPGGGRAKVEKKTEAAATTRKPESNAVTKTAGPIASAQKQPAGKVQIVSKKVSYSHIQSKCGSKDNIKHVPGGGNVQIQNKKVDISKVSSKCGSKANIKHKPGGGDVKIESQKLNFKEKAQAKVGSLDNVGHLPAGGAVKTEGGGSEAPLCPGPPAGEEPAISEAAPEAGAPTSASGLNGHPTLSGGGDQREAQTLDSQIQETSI
# UniProt O60732: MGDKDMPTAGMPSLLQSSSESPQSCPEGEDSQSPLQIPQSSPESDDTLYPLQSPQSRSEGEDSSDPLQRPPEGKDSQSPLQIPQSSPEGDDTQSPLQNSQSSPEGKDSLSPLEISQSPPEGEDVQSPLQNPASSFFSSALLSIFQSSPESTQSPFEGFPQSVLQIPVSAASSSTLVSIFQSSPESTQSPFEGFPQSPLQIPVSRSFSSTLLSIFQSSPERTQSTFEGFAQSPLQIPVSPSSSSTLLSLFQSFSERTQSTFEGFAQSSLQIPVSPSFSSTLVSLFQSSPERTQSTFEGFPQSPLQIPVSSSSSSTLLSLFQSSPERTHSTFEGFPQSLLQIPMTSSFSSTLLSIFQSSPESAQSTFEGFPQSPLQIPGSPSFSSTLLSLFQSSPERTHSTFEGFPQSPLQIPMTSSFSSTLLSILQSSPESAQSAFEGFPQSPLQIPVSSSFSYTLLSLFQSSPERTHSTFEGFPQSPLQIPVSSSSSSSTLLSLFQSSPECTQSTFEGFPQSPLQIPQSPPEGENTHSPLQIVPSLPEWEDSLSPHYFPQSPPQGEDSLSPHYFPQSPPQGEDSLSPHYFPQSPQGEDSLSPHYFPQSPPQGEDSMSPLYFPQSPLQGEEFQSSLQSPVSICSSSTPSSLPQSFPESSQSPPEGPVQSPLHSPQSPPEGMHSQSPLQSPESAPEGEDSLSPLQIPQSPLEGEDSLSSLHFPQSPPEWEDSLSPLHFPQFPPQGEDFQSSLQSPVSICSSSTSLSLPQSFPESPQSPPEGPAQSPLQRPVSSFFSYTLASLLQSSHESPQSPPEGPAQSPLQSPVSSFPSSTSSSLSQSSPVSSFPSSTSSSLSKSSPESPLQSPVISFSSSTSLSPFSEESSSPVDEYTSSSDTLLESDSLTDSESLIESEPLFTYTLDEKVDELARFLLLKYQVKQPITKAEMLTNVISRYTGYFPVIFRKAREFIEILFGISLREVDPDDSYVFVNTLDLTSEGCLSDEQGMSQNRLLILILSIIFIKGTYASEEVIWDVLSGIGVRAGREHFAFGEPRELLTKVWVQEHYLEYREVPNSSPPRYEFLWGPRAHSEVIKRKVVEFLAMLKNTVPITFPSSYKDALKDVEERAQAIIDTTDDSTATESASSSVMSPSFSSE
# UniProt P07948: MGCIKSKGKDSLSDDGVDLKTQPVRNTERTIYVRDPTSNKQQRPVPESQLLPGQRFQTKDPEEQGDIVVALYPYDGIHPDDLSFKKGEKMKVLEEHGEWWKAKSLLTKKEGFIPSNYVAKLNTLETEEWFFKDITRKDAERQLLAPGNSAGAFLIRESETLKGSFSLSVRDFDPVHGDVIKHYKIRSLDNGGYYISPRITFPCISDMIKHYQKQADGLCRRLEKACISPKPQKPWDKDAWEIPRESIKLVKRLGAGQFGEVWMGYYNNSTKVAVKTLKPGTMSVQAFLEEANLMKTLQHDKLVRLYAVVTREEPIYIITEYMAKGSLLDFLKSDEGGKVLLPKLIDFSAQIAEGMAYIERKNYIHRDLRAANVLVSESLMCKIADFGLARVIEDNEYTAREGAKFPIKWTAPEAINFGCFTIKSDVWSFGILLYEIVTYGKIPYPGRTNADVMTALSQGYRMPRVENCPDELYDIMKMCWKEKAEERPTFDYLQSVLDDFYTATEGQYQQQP
# UniProt O95777: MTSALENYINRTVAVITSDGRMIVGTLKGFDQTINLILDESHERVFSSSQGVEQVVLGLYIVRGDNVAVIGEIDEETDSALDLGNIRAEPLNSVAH
# UniProt Q16706: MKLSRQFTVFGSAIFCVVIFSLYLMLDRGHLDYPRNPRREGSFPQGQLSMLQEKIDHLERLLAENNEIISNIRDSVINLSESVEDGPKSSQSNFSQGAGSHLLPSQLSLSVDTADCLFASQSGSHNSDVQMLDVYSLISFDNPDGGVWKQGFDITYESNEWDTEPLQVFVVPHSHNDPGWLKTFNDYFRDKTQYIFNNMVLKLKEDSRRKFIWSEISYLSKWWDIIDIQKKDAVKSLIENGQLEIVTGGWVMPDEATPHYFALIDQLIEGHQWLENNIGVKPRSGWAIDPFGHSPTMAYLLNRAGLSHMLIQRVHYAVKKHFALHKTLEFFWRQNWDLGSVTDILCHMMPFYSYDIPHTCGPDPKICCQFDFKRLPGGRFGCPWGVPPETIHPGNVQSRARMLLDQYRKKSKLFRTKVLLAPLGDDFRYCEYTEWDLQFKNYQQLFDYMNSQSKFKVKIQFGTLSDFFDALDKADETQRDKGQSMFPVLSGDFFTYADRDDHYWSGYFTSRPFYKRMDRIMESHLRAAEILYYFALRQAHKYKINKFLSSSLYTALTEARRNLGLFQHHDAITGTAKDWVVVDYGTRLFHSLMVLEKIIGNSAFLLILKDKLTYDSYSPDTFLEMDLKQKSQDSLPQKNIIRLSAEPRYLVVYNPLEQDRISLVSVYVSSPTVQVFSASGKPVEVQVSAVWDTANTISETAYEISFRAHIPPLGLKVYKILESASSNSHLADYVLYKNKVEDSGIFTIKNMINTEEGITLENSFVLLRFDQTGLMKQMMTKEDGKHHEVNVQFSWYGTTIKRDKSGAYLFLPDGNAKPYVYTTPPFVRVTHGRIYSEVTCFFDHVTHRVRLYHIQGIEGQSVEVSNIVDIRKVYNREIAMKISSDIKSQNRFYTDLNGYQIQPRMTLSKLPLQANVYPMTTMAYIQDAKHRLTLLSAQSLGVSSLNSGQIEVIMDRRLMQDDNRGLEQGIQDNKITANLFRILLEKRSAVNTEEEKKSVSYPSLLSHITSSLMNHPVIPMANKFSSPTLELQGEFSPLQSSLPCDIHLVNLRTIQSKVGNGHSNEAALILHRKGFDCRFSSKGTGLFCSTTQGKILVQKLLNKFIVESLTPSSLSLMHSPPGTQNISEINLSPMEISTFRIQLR
# The other results are listed elsewhere or left out.
# Columns and labels:
# Test in all cases: log2 fold change, soluble protein after heating vs DMSO (PISA); higher = thermal stabilisation; K562 cells, 10 uM, 30 min; active = over 0.2 and 3.5 SD of the protein, either way, in both replicates (recomputed)
# [1] = compound: NC(=O)Nc1cc(-c2cccc(F)c2)sc1C(=O)N[C@H]1CCCNC1
# Method in brief: (§1)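 Soluble protein was quantified by TMTpro 16plex LC-MS/MS after channel sums were equalised. It was obtained as the supernatant after 21,000xg for 90 min from pooled aliquots of K562 cells (2×10^6 cells/mL, 10 μM compound, 30 min) heated for 3 min across 48°C-58°C and extracted in PBS with 0.5% NP-40 at 4°C. Thermal stability values are relative to control samples and come from duplicates. They are given as log2 fold changes.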
# [2] = compound: NC(=O)c1cnc(N[C@@H]2CCCC[C@@H]2N)nc1Nc1cccc(-n2nccn2)c1
# Method in brief: as §1
# [3] = compound: NC1(c2ccc(-c3nc4ccn5c(=O)[nH]nc5c4cc3-c3ccccc3)cc2)CCC1
# Method in brief: as §1
# [4] = compound: NCC(=O)Nc1ccc(-n2nc(C(F)(F)F)cc2-c2ccc3c(ccc4ccccc43)c2)cc1
# Method in brief: as §1
# entinostat = compound: Nc1ccccc1NC(=O)c1ccc(CNC(=O)OCc2cccnc2)cc1 [entinostat]
# Method in brief: as §1
# vorinostat = compound: O=C(CCCCCCC(=O)Nc1ccccc1)NO [vorinostat]
# Method in brief: as §1
# citarinostat = compound: O=C(CCCCCCNC(=O)c1cnc(N(c2ccccc2)c2ccccc2Cl)nc1)NO [citarinostat]
# Method in brief: as §1
# silmitasertib = compound: O=C(O)c1ccc2c(c1)nc(Nc1cccc(Cl)c1)c1ccncc12 [silmitasertib]
# Method in brief: as §1
# [5] = compound: O=C1NC(=O)C(c2cnc3ccccn23)=C1c1cn2c3c(cc(F)cc13)CN(C(=O)N1CCCCC1)CC2
# Method in brief: as §1
# [6] = compound: c1cc(OCCN2CCCCC2)cc(-c2n[nH]c3ccc(-c4nnc[nH]4)cc23)c1
# Method in brief: as §1
Target,log2 fold change [1],log2 fold change [2],log2 fold change [3],log2 fold change [4],log2 fold change (entinostat),log2 fold change (vorinostat),log2 fold change (citarinostat),log2 fold change (silmitasertib),log2 fold change [5],log2 fold change [6]
MAPK8 isoform 3 (UniProt P45983),inactive: -0.05,inactive: -0.02,inactive: -0.062,inactive: -0.05,inactive: 0.001,inactive: -0.027,inactive: -0.049,inactive: 0.008,inactive: -0.044,inactive: 0.362
MACF1 (UniProt H3BQK9),inactive: 0.002,inactive: 0,inactive: -0.02,inactive: -0.154,inactive: 0.054,inactive: 0.08,inactive: 0.098,inactive: 0.139,inactive: 0.029,inactive: -0.187
MAPK6 (UniProt Q16659),inactive: -0.045,inactive: 0.03,inactive: -0.003,inactive: -0.254,inactive: -0.033,inactive: -0.032,inactive: -0.178,inactive: -0.144,inactive: -0.065,inactive: 0.036
MAEA (UniProt Q7L5Y9),inactive: -0.021,inactive: -0.024,inactive: -0.086,inactive: 0.013,inactive: 0.056,inactive: -0.003,inactive: 0.038,inactive: 0.047,inactive: 0.036,inactive: -0.058
MAGI1 (UniProt Q96QZ7),inactive: -0.069,inactive: -0.042,inactive: 0.003,inactive: -0.022,inactive: 0.019,inactive: 0.07,inactive: 0.022,inactive: 0.125,inactive: 0.035,inactive: -0.081
LRRFIP1 (UniProt Q32MZ4),inactive: -0.027,inactive: 0.015,inactive: 0.056,inactive: 0.024,inactive: -0.042,inactive: -0.079,inactive: -0.007,inactive: 0.049,inactive: 0.01,inactive: -0.013
LSR (UniProt Q86X29),inactive: -0.135,inactive: 0.066,inactive: 0.066,inactive: 0.039,inactive: -0.054,inactive: -0.027,inactive: 0.006,inactive: -0.036,inactive: 0.03,inactive: -0.012
MACF1 (UniProt Q9UPN3),inactive: 0.006,inactive: -0.062,inactive: -0.05,inactive: 0.019,inactive: 0.039,inactive: 0.047,inactive: -0.018,inactive: 0.078,inactive: 0.048,inactive: -0.1
MAP3K2 (UniProt Q9Y2U5),inactive: -0.06,inactive: 0.15,inactive: 0.226,inactive: 0.007,inactive: 0.006,inactive: -0.15,inactive: 0.16,inactive: 0.113,inactive: -0.001,inactive: -0.023
MAP1S (UniProt Q66K74),inactive: -0.025,inactive: 0.031,inactive: -0.045,inactive: 0.006,inactive: -0.016,inactive: 0.013,inactive: 0.077,inactive: -0.036,inactive: -0.007,inactive: -0.025
MAP4 (UniProt P27816),inactive: 0.039,inactive: 0.002,inactive: 0.04,inactive: 0.025,inactive: -0.015,inactive: -0.013,inactive: -0.007,inactive: -0.018,inactive: 0.003,inactive: -0.014
MAPKAPK3 (UniProt Q16644),inactive: 0.147,inactive: -0.024,inactive: -0.125,inactive: -0.052,inactive: -0.068,inactive: -0.006,inactive: -0.012,inactive: 0.18,inactive: -0.141,inactive: 0.05
MAGED2 (UniProt Q9UNF1),inactive: 0.009,inactive: -0.047,inactive: -0.231,inactive: -0.064,inactive: -0.039,inactive: -0.005,inactive: 0.062,inactive: -0.008,inactive: -0.013,inactive: -0.065
MAGEC1 (UniProt O60732),inactive: 0.091,inactive: -0.031,inactive: -0.025,inactive: 0.027,inactive: 0.117,inactive: 0.002,inactive: 0.095,inactive: 0.127,inactive: 0.206,inactive: -0.074
MANEA (UniProt Q5SRI9),inactive: -0.046,inactive: -0.044,inactive: -0.06,inactive: -0.018,inactive: 0.008,inactive: 0.177,inactive: 0.017,inactive: 0.058,inactive: -0.045,inactive: -0.113
MANBA (UniProt O00462),inactive: 0.001,inactive: 0.017,inactive: -0.144,inactive: -0.008,inactive: -0.02,inactive: -0.022,inactive: 0.056,inactive: 0.014,inactive: -0.003,inactive: -0.122
MAP2K4 isoform 2 (UniProt P45985),inactive: 0.011,inactive: 0.015,inactive: -0.118,inactive: -0.04,inactive: -0.01,inactive: 0.062,inactive: -0.015,inactive: 0,inactive: -0.057,inactive: -0.035
LYN (UniProt P07948),active: 0.385,inactive: 0.048,inactive: -0.048,inactive: -0.016,inactive: -0.006,inactive: 0.058,inactive: 0.017,inactive: 0.176,inactive: 0.022,inactive: 0.143
LSM8 (UniProt O95777),inactive: 0.002,inactive: -0.002,inactive: -0.022,inactive: 0,inactive: -0.046,inactive: -0.004,inactive: 0.051,inactive: -0.006,inactive: 0.052,inactive: -0.06
MAN2A1 (UniProt Q16706),inactive: 0.03,inactive: -0.005,inactive: -0.046,inactive: -0.002,inactive: -0.015,inactive: -0.033,inactive: -0.034,inactive: -0.028,inactive: -0.002,inactive: -0.022
MAGEB2 (UniProt O15479),inactive: 0.141,inactive: 0.025,inactive: 0.232,inactive: 0.11,inactive: -0.023,inactive: 0.014,inactive: -0.12,inactive: 0.109,inactive: 0.126,inactive: 0.466
MAGEC2 (UniProt Q9UBF1),inactive: 0.013,inactive: -0.037,inactive: -0.021,inactive: -0.004,inactive: -0.009,inactive: 0.032,inactive: 0.029,inactive: 0.057,inactive: 0.089,inactive: -0.09
MAP2K2 (UniProt P36507),inactive: 0,inactive: -0.042,inactive: -0.023,inactive: -0.003,inactive: 0.061,inactive: 0.039,inactive: -0.051,inactive: -0.098,inactive: -0.055,inactive: -0.018
LSS (UniProt P48449),inactive: 0.017,inactive: 0.108,inactive: 0.142,inactive: -0.049,inactive: 0.003,inactive: 0.052,inactive: -0.01,inactive: 0.001,inactive: -0.001,inactive: -0.033
MAP3K20 (UniProt Q9NYL2),inactive: -0.008,inactive: 0.035,inactive: -0.012,inactive: -0.03,inactive: 0.019,inactive: 0,inactive: 0.002,inactive: 0.031,inactive: 0.026,inactive: -0.09
MAPK3 (UniProt P27361),inactive: 0.097,inactive: 0.067,inactive: -0.008,inactive: 0.068,inactive: 0.039,inactive: 0.093,inactive: 0.116,inactive: -0.045,inactive: 0.022,inactive: 0.059
MAN1B1 (UniProt Q9UKM7),inactive: 0.009,inactive: 0.008,inactive: -0.055,inactive: -0.064,inactive: 0.011,inactive: 0.003,inactive: -0.013,inactive: 0.024,inactive: -0.049,inactive: -0.133
MAPKAPK2 (UniProt P49137),inactive: 0.12,inactive: 0.035,inactive: -0.14,inactive: 0.034,inactive: 0.018,inactive: 0.04,inactive: 0.058,inactive: 0.06,inactive: -0.128,inactive: -0.006
MAN1A1 (UniProt P33908),inactive: -0.031,inactive: -0.007,inactive: -0.006,inactive: -0.026,inactive: -0.032,inactive: -0.047,inactive: 0.005,inactive: -0.016,inactive: -0.057,inactive: -0.076

# Seven entries from above in another layout.
Target | log2 fold change [1] | log2 fold change [2] | log2 fold change [3] | log2 fold change [4] | log2 fold change (entinostat) | log2 fold change (vorinostat) | log2 fold change (citarinostat) | log2 fold change (silmitasertib) | log2 fold change [5] | log2 fold change [6]
MACF1 (UniProt H3BQK9) | inactive: 0.002 | inactive: 0 | inactive: -0.02 | inactive: -0.154 | inactive: 0.054 | inactive: 0.08 | inactive: 0.098 | inactive: 0.139 | inactive: 0.029 | inactive: -0.187
LSR (UniProt Q86X29) | inactive: -0.135 | inactive: 0.066 | inactive: 0.066 | inactive: 0.039 | inactive: -0.054 | inactive: -0.027 | inactive: 0.006 | inactive: -0.036 | inactive: 0.03 | inactive: -0.012
MAP2K4 isoform 2 (UniProt P45985) | inactive: 0.011 | inactive: 0.015 | inactive: -0.118 | inactive: -0.04 | inactive: -0.01 | inactive: 0.062 | inactive: -0.015 | inactive: 0 | inactive: -0.057 | inactive: -0.035
LSM8 (UniProt O95777) | inactive: 0.002 | inactive: -0.002 | inactive: -0.022 | inactive: 0 | inactive: -0.046 | inactive: -0.004 | inactive: 0.051 | inactive: -0.006 | inactive: 0.052 | inactive: -0.06
MAP2K2 (UniProt P36507) | inactive: 0 | inactive: -0.042 | inactive: -0.023 | inactive: -0.003 | inactive: 0.061 | inactive: 0.039 | inactive: -0.051 | inactive: -0.098 | inactive: -0.055 | inactive: -0.018
MAP3K20 (UniProt Q9NYL2) | inactive: -0.008 | inactive: 0.035 | inactive: -0.012 | inactive: -0.03 | inactive: 0.019 | inactive: 0 | inactive: 0.002 | inactive: 0.031 | inactive: 0.026 | inactive: -0.09
MAN1B1 (UniProt Q9UKM7) | inactive: 0.009 | inactive: 0.008 | inactive: -0.055 | inactive: -0.064 | inactive: 0.011 | inactive: 0.003 | inactive: -0.013 | inactive: 0.024 | inactive: -0.049 | inactive: -0.133
